# Measured values reported in the supplement of paper PMC8728848.
# This is one part of the list.
# What was measured:
# Test in all cases: glycan array binding signal (z-score within array); higher = stronger binding
# Details in all cases: glycan notation: IUPAC condensed, linker removed; mutation: Q318A
# GlcNAc(b1-3)GalNAc = target: GlcNAc(b1-3)GalNAc
# Summary of the method: (§1)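 Arrays were curated from the Consortium for Functional Glycomics database, 3228 in total, and kept only where the protein sequence was available. Binding is expressed as a within-array Z-score. This score was averaged across arrays of the same protein sequence at different concentrations or buffers and across linkers, and negative values can be read as non-binding.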
# GlcNAc(b1-3)Man = target: GlcNAc(b1-3)Man
# Summary of the method: as §1
# [1] = target: GlcNAc(b1-3)[GlcNAc(b1-4)][GlcNAc(b1-6)]GlcNAc
# Summary of the method: as §1
# [2] = target: GlcNAc(b1-3)[GlcNAc(b1-6)]Gal(b1-4)GlcNAc
# Summary of the method: as §1
# [3] = target: GlcNAc(b1-3)[GlcNAc(b1-6)]GalNAc
# Summary of the method: as §1
# [4] = target: GlcNAc(b1-4)Gal(b1-4)GlcNAc
# Summary of the method: as §1
# GlcNAc(b1-4)GlcNAc = target: GlcNAc(b1-4)GlcNAc
# Summary of the method: as §1
# [5] = target: GlcNAc(b1-4)GlcNAc(b1-4)GlcNAc
# Summary of the method: as §1
# [6] = target: GlcNAc(b1-4)GlcNAc(b1-4)GlcNAc(b1-4)GlcNAc(b1-4)GlcNAc
# Summary of the method: as §1
# [7] = target: GlcNAc(b1-4)GlcNAc(b1-4)GlcNAc(b1-4)GlcNAc(b1-4)GlcNAc(b1-4)GlcNAc
# Summary of the method: as §1
# [8] = target: GlcNAc(b1-4)[GlcNAc(b1-6)]GalNAc
# Summary of the method: as §1
# [9] = target: GlcNAc(b1-6)Gal(b1-4)GlcNAc
# Summary of the method: as §1
# GlcNAc(b1-6)GalNAc = target: GlcNAc(b1-6)GalNAc
# Summary of the method: as §1
# [10] = target: GlcNAc6S(b1-3)Gal(b1-4)GlcNAc
# Summary of the method: as §1
# Kdn(a2-3)Gal(b1-3)GalNAc = target: Kdn(a2-3)Gal(b1-3)GalNAc
# Summary of the method: as §1
# Kdn(a2-3)Gal(b1-3)GlcNAc = target: Kdn(a2-3)Gal(b1-3)GlcNAc
# Summary of the method: as §1
# Kdn(a2-3)Gal(b1-4)Glc = target: Kdn(a2-3)Gal(b1-4)Glc
# Summary of the method: as §1
# Kdn(a2-3)Gal(b1-4)GlcNAc = target: Kdn(a2-3)Gal(b1-4)GlcNAc
# Summary of the method: as §1
# [11] = target: Kdn(a2-3)Gal(b1-4)[Fuc(a1-3)]GlcNAc
# Summary of the method: as §1
# Kdn(a2-6)Gal(b1-4)GlcNAc = target: Kdn(a2-6)Gal(b1-4)GlcNAc
# Summary of the method: as §1
# [12] = target: Man(a1-2)Man(a1-2)Man(a1-3)Man
# Summary of the method: as §1
# [13] = target: Man(a1-2)Man(a1-2)Man(a1-6)[Man(a1-3)]Man
# Summary of the method: as §1
# Man(a1-2)Man(a1-3)Man = target: Man(a1-2)Man(a1-3)Man
# Summary of the method: as §1
# [14] = target: Man(a1-2)Man(a1-3)[Man(a1-2)Man(a1-6)]Man
# Summary of the method: as §1
# [15] = target: Man(a1-2)Man(a1-3)[Man(a1-2)Man(a1-6)]Man(a1-6)[Man(a1-2)Man(a1-2)Man(a1-3)]Man
# Summary of the method: as §1
# [16] = target: Man(a1-2)Man(a1-3)[Man(a1-2)Man(a1-6)]Man(a1-6)[Man(a1-2)Man(a1-2)Man(a1-3)]Man(b1-4)GlcNAc(b1-4)GlcNAc
# Summary of the method: as §1
# [17] = target: Man(a1-2)Man(a1-3)[Man(a1-6)]Man(a1-6)[Man(a1-2)Man(a1-3)]Man(b1-4)GlcNAc(b1-4)GlcNAc
# Summary of the method: as §1
# [18] = target: Man(a1-2)Man(a1-6)[Man(a1-3)]Man(a1-6)[Man(a1-2)Man(a1-2)Man(a1-3)]Man
# Summary of the method: as §1
# [19] = target: Man(a1-2)Man(a1-6)[Man(a1-3)]Man(a1-6)[Man(a1-2)Man(a1-2)Man(a1-3)]Man(b1-4)GlcNAc(b1-4)GlcNAc
# Summary of the method: as §1
# Man(a1-3)[Man(a1-6)]Man = target: Man(a1-3)[Man(a1-6)]Man
# Summary of the method: as §1
# [20] = target: Man(a1-3)[Man(a1-6)]Man(a1-6)[Man(a1-2)Man(a1-3)]Man(b1-4)GlcNAc(b1-4)GlcNAc
# Summary of the method: as §1
# [21] = target: Man(a1-3)[Man(a1-6)]Man(a1-6)[Man(a1-3)]Man
# Summary of the method: as §1
# [22] = target: Man(a1-3)[Man(a1-6)]Man(a1-6)[Man(a1-3)]Man(b1-4)GlcNAc(b1-4)GlcNAc
# Summary of the method: as §1
# [23] = target: Man(a1-3)[Man(a1-6)]Man(b1-4)GlcNAc(b1-4)GlcNAc
# Summary of the method: as §1
# [24] = target: Man(a1-3)[Man(a1-6)]Man(b1-4)GlcNAc(b1-4)[Fuc(a1-6)]GlcNAc
# Summary of the method: as §1
# Man(a1-6)Man = target: Man(a1-6)Man
# Summary of the method: as §1
# Man(b1-4)GlcNAc = target: Man(b1-4)GlcNAc
# Summary of the method: as §1
# MurNAc(b1-4)GlcNAc = target: MurNAc(b1-4)GlcNAc
# Summary of the method: as §1
binder,measurement,setting,value
"SUN4 (Saccharomyces cerevisiae), P53616 (protein) MGSSHHHHHHSSGLVPRGSHNGSIYGDLADFSGPYEKFEDGTIPCGQFPSGQGVIPISWLDEGGWSGVENTDTSTGGSCKEGSYCSYACQPGMSKTQWPSDQPSDGRSIGGLLCKDGYLYRSNTDTDYLCEWGVDAAYVVSELSNDVAICRTDYPGTENMVIPTYVQAGDSLPLTVVDQDTYYTWQGLKTSAAYYVNNAGISVEDACVWGSSSSGVGNWAPLNFGAGSSDGVAYLSLIPNPNNGNALNFNVKIVAADDSSTVNGECIYENGSFSGGSDGCTVSVTAGKAKFVLYN",glycan array binding signal (z-score),GlcNAc(b1-3)GalNAc,-0.258
same,glycan array binding signal (z-score),GlcNAc(b1-3)Man,-0.628
same,glycan array binding signal (z-score),[1],-1.08
same,glycan array binding signal (z-score),[2],0.221
same,glycan array binding signal (z-score),[3],-0.145
same,glycan array binding signal (z-score),[4],0.394
same,glycan array binding signal (z-score),GlcNAc(b1-4)GlcNAc,0.016
same,glycan array binding signal (z-score),[5],0.057
same,glycan array binding signal (z-score),[6],-1.7
same,glycan array binding signal (z-score),[7],-0.051
same,glycan array binding signal (z-score),[8],0.606
same,glycan array binding signal (z-score),[9],-0.7
same,glycan array binding signal (z-score),GlcNAc(b1-6)GalNAc,-0.369
same,glycan array binding signal (z-score),[10],-0.102
same,glycan array binding signal (z-score),Kdn(a2-3)Gal(b1-3)GalNAc,-0.503
same,glycan array binding signal (z-score),Kdn(a2-3)Gal(b1-3)GlcNAc,-0.088
same,glycan array binding signal (z-score),Kdn(a2-3)Gal(b1-4)Glc,0.215
same,glycan array binding signal (z-score),Kdn(a2-3)Gal(b1-4)GlcNAc,0.246
same,glycan array binding signal (z-score),[11],0.551
same,glycan array binding signal (z-score),Kdn(a2-6)Gal(b1-4)GlcNAc,-0.753
same,glycan array binding signal (z-score),[12],-0.319
same,glycan array binding signal (z-score),[13],0.965
same,glycan array binding signal (z-score),Man(a1-2)Man(a1-3)Man,-0.107
same,glycan array binding signal (z-score),[14],-1.1
same,glycan array binding signal (z-score),[15],0.282
same,glycan array binding signal (z-score),[16],-0.41
same,glycan array binding signal (z-score),[17],0.026
same,glycan array binding signal (z-score),[18],-0.156
same,glycan array binding signal (z-score),[19],-0.126
same,glycan array binding signal (z-score),Man(a1-3)[Man(a1-6)]Man,0.362
same,glycan array binding signal (z-score),[20],1.08
same,glycan array binding signal (z-score),[21],1.55
same,glycan array binding signal (z-score),[22],0.133
same,glycan array binding signal (z-score),[23],-0.143
same,glycan array binding signal (z-score),[24],0.346
same,glycan array binding signal (z-score),Man(a1-6)Man,0.001
same,glycan array binding signal (z-score),Man(b1-4)GlcNAc,0.21
same,glycan array binding signal (z-score),MurNAc(b1-4)GlcNAc,0.75

# Copied from the listing (2 entries):
binder,measurement,setting,value
"SUN4 (Saccharomyces cerevisiae), P53616 (protein) MGSSHHHHHHSSGLVPRGSHNGSIYGDLADFSGPYEKFEDGTIPCGQFPSGQGVIPISWLDEGGWSGVENTDTSTGGSCKEGSYCSYACQPGMSKTQWPSDQPSDGRSIGGLLCKDGYLYRSNTDTDYLCEWGVDAAYVVSELSNDVAICRTDYPGTENMVIPTYVQAGDSLPLTVVDQDTYYTWQGLKTSAAYYVNNAGISVEDACVWGSSSSGVGNWAPLNFGAGSSDGVAYLSLIPNPNNGNALNFNVKIVAADDSSTVNGECIYENGSFSGGSDGCTVSVTAGKAKFVLYN",glycan array binding signal (z-score),[5],0.057
same,glycan array binding signal (z-score),[6],-1.7
